In the supplement of paper PMC10849652:
The other results are listed elsewhere or left out.

The chains behind the UniProt entries cited, without tags or fusion partners. Where a name states a change or a piece, a line headed by the entry shows the natural chain unless it says otherwise.
UniProt Q86XP3: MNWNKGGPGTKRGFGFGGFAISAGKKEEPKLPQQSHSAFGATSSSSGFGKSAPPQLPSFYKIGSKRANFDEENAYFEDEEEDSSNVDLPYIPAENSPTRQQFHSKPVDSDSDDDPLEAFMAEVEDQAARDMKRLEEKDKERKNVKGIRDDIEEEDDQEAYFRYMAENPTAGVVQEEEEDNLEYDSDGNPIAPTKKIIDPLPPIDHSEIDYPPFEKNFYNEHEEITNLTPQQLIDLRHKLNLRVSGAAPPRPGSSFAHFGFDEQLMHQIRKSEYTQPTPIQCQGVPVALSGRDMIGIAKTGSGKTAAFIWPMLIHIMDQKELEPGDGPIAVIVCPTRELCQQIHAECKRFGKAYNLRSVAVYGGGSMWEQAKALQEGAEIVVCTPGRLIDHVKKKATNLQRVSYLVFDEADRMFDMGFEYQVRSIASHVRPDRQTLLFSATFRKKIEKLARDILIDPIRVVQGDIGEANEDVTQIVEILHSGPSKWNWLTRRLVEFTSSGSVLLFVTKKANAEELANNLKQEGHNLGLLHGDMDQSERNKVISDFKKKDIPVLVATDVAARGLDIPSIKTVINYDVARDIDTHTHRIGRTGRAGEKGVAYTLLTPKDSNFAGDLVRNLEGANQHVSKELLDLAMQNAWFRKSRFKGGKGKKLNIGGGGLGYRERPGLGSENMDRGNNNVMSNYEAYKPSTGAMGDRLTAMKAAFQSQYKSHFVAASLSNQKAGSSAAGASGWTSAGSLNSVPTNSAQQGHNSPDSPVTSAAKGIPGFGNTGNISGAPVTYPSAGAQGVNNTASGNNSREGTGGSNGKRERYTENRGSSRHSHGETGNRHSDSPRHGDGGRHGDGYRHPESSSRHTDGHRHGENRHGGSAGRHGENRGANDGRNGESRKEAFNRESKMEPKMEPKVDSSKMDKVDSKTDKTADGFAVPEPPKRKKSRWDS
UniProt Q9BQ39: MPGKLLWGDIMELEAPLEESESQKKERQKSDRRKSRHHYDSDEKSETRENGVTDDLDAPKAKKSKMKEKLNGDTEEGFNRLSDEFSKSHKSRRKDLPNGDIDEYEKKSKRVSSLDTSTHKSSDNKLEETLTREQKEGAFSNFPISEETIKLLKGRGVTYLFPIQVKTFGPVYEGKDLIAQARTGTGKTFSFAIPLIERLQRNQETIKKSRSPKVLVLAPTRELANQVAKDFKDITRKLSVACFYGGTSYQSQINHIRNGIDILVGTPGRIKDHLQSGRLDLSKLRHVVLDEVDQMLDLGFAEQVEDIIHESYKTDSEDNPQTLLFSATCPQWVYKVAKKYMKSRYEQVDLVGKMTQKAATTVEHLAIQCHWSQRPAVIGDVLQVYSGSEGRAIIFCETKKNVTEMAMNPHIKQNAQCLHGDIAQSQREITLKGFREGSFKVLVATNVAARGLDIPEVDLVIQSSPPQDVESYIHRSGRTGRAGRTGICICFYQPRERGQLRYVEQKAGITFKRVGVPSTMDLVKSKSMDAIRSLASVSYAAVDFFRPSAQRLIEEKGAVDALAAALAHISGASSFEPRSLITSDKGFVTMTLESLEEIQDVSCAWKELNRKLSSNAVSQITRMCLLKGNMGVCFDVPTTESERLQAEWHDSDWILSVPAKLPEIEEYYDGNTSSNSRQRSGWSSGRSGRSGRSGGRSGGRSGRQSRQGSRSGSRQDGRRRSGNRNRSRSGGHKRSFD
UniProt Q16698: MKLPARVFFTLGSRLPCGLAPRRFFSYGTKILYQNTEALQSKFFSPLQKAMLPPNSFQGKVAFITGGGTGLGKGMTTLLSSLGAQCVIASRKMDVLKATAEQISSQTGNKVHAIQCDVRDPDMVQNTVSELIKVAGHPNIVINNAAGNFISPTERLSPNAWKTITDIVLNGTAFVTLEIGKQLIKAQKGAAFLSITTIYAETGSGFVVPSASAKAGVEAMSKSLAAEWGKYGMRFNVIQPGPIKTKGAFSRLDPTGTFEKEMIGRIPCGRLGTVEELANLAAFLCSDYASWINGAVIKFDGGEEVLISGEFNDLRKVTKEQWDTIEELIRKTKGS
UniProt Q14203, whole entry, looked up: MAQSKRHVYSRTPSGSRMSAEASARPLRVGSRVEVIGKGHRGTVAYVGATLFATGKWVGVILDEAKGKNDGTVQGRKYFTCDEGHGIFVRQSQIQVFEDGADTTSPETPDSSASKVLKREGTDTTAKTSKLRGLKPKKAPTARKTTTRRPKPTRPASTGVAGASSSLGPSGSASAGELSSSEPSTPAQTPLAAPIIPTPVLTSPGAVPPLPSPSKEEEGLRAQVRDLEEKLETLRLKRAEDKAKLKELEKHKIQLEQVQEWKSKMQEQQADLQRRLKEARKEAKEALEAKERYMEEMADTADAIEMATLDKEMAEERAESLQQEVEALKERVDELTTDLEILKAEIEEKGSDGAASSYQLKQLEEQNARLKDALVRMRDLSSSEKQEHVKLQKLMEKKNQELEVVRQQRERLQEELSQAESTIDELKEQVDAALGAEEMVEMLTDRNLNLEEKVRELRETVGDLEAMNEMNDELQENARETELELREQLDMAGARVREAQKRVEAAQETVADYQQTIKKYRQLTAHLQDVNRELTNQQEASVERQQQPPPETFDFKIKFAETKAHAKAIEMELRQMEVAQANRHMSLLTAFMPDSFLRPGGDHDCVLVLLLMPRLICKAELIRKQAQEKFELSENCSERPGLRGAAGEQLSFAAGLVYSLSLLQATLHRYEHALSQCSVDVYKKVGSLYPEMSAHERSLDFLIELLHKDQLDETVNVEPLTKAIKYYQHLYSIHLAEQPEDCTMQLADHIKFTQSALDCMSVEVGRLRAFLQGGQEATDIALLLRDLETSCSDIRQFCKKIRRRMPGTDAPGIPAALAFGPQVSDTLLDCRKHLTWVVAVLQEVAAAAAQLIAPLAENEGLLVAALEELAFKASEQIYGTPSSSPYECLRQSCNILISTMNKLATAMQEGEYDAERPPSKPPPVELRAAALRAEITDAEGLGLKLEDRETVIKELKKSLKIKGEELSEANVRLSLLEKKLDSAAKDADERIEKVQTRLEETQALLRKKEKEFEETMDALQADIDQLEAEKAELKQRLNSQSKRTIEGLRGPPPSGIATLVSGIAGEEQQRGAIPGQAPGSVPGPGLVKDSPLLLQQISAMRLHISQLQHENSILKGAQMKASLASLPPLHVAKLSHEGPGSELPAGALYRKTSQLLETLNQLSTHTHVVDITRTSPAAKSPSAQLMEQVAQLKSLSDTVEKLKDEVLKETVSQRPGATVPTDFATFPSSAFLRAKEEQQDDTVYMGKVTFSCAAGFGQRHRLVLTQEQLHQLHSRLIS
UniProt P17844: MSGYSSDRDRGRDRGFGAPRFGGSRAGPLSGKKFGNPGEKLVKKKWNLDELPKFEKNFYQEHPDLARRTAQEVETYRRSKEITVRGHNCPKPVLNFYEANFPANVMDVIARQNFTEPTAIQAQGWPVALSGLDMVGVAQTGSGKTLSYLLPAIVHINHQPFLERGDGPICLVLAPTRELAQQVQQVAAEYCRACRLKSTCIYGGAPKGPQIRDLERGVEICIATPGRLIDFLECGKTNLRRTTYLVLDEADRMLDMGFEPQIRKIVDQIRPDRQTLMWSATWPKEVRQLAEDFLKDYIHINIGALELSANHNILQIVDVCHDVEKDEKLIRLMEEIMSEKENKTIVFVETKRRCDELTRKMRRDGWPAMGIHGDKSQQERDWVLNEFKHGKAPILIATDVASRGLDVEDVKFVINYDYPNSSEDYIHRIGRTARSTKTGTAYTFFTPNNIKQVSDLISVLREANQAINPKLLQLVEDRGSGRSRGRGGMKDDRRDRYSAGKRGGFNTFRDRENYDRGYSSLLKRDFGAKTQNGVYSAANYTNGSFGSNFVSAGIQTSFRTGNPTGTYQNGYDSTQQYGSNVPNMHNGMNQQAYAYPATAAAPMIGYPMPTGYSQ
UniProt Q92841: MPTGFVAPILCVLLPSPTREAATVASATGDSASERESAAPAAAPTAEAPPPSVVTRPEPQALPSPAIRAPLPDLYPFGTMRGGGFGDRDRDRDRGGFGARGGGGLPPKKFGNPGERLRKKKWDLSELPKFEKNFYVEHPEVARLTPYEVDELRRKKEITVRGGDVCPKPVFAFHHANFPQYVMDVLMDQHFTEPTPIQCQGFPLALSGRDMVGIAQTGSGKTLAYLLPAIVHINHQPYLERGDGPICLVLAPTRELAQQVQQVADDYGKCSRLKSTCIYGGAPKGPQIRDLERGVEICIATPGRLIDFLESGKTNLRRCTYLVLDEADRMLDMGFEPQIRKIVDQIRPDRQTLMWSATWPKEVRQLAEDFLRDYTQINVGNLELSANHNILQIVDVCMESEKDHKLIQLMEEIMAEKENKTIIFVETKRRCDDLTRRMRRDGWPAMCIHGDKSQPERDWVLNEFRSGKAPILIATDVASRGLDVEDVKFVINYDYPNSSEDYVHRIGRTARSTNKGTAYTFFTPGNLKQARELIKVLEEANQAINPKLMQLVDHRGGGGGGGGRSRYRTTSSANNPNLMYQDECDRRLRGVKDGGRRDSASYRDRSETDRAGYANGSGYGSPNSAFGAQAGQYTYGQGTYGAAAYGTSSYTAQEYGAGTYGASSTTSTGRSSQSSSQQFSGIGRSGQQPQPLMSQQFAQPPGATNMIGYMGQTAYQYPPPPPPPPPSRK
UniProt O75935, whole entry, looked up: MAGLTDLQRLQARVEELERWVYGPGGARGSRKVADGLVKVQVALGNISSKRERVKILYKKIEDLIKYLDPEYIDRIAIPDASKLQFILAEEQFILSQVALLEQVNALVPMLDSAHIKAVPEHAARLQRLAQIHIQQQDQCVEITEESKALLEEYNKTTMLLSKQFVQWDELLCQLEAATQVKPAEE
UniProt Q9BUQ8: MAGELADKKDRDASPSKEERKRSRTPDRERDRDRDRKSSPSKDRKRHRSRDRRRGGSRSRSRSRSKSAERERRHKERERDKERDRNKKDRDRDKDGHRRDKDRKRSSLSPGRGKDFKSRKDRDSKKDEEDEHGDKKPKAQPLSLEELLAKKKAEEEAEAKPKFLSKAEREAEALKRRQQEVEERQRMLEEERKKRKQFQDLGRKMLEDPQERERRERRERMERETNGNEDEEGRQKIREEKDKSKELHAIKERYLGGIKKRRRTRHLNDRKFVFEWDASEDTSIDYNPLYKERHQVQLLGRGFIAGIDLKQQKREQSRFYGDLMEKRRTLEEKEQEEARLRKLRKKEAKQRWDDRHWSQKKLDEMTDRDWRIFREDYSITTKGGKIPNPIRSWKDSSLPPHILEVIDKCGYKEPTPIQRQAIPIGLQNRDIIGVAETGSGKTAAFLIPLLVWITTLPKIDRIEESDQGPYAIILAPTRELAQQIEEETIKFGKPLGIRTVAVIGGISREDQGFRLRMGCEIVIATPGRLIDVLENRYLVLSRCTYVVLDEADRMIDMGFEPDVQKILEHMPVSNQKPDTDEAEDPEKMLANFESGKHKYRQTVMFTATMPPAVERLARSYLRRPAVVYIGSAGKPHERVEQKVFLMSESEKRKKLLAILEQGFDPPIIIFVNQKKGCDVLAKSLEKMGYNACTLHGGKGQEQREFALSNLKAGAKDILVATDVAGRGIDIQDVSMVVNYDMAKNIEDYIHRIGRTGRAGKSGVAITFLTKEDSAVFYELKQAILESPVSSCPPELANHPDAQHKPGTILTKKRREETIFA
UniProt Q96EP5: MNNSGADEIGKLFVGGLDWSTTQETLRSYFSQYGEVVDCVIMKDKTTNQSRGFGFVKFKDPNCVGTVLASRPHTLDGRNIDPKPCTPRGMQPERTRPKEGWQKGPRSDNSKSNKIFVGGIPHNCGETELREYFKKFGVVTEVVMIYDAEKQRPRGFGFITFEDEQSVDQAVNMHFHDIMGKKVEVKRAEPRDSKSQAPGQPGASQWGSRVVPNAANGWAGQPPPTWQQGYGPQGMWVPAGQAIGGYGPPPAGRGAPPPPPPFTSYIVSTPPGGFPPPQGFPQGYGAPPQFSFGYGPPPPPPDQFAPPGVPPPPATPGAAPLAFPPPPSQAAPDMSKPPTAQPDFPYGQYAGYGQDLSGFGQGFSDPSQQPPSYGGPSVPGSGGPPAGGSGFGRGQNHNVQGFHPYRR
UniProt Q9H1C7: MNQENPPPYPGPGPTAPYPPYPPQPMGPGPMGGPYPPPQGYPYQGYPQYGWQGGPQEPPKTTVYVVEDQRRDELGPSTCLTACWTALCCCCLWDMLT
UniProt O00148, whole entry, looked up: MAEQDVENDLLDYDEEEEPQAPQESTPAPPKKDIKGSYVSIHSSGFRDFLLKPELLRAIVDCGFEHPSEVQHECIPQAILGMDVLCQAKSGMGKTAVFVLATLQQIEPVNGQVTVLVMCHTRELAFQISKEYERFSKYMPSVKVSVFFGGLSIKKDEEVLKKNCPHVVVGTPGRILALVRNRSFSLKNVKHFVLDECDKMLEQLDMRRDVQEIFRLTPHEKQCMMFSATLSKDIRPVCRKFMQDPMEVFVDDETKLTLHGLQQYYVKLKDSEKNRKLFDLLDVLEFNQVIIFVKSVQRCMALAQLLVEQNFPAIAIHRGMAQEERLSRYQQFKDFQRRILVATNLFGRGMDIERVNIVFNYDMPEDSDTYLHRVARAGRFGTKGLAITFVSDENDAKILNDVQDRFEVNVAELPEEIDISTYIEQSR

What was measured:
Experiment in all cases: log2 fold change, soluble protein after heating vs DMSO (PISA); higher = thermal stabilisation; K562 lysate, 10 uM; active = over 0.2 and 3.5 SD of the protein, either way, in both replicates (recomputed)
[1] = compound: C#Cc1cccc(Nc2ncnc3cc(OCCOC)c(OCCOC)cc23)c1 [erlotinib]
Outline: (§1)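 A 30 min treatment with 10 μM compound was applied to crude K562 extract at 1 mg/mL protein in PBS pH 7.4 with 1 mM MgCl2. Heating for 3 min spanned 48°C-58°C, after which aliquots were pooled, adjusted to 0.5% NP-40 at 4°C and spun at 21,000xg for 90 min. TMTpro 16plex LC-MS/MS of the supernatant, with channel sums equalised, gave values recorded as log-two fold change in thermal stability against solvent controls, from duplicates.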

[2] = compound: C/C(=N\NC(=O)C1=CC(=CC=C1)S(=O)(=O)N2CCOCC2)/C3=C(C=CC(=C3)Cl)O
Outline: as §1

[3] = compound: C1=CC(=CC=C1C2=NC3=C(N2)C=C(C=C3)C(=O)N)OC4=CC=C(C=C4)Cl
Outline: as §1

[4] = compound: C1=CC2=C(C=CC(=C2)/C=C\3/C(=O)NC(=NCC4=CC=CS4)S3)N=C1
Outline: as §1

[5] = compound: C1=CC2=NC=CN=C2C=C1/C=C/3\C(=O)NC(=O)S3
Outline: as §1

[6] = compound: C1=CC=C(C=C1)C2=NC(=C(N2)C3=CC=NC=C3)C4=CC(=C(C=C4)Cl)O
Outline: as §1

[7] = compound: C1=CC=C2C(=C1)C3=NNC4=CC=CC(=C43)C2=O
Outline: as §1

[8] = compound: C1CCN(C1)C(=O)NC2=CC=CC(=C2)NC3=NC=C(C(=N3)NCCC4=CN=CN4)Br
Outline: as §1

[9] = compound: C1CN(CCC1(CC2=CC=C(C=C2)Cl)N)C3=NC=NC4=C3C=CN4
Outline: as §1

[10] = compound: C1COCCN1CCN2C3=CC=CC=C3N=C2NC(=O)C4=CC(=CC=C4)[N+](=O)[O-] [IRAK-1-4 Inhibitor I]
Outline: as §1

[11] = compound: C=CC(=O)N1CCC[C@@H](n2nc(-c3ccc(Oc4ccccc4)cc3)c3c(N)ncnc32)C1 [ibrutinib]
Outline: as §1

[12] = compound: CC(=O)c1cnc2ccc(-c3cc(Cl)c(O)c(Cl)c3)nc2c1N[C@H]1CC[C@H](CN(C)C)CC1
Outline: as §1

[13] = compound: CC(C)(C)Cn1c(N)nc2ccc(-c3[nH]c(C(C)(C)C)nc3-c3ccc(F)cc3)nc21 [ralimetinib]
Outline: as §1

[14] = compound: CC(C)(O)CC(=O)NCCn1ccc2ncnc(Nc3ccc(Oc4cccc(C(F)(F)F)c4)c(Cl)c3)c21
Outline: as §1

[15] = compound: CC(C)C1=C2N=C(C=C(N2N=C1)NCC3=CC=CC=C3)NCCCCCCN
Outline: as §1

[16] = compound: CC1=C(C(CC(=O)N1)C2=CC=C(C=C2)C(F)(F)F)C(=O)NC3=C(C=C4C(=C3)C=NN4)F
Outline: as §1

[17] = compound: CC1=C(C2=C(C=C1)C(=O)C3=CC=CC=C3N2CCCN)C
Outline: as §1

[18] = compound: CC1=C(C=C(C=C1)NC(=O)C2=CC(=CC=C2)C(C)(C)C#N)NC3=CC4=C(C=C3)N=CN(C4=O)C
Outline: as §1

[19] = compound: CC1=C(C=C(C=C1)NC(=O)C2=CC(=CC=C2)N(C)C)NC(=O)C3=CC=C(C=C3)O
Outline: as §1

[20] = compound: CC1=CC=C(C=C1)SC2=C3C=C(SC3=CN=C2)C(=O)N
Outline: as §1

Row | Target | log2 fold change [1] | log2 fold change [2] | log2 fold change [3] | log2 fold change [4] | log2 fold change [5] | log2 fold change [6] | log2 fold change [7] | log2 fold change [8] | log2 fold change [9] | log2 fold change [10] | log2 fold change [11] | log2 fold change [12] | log2 fold change [13] | log2 fold change [14] | log2 fold change [15] | log2 fold change [16] | log2 fold change [17] | log2 fold change [18] | log2 fold change [19] | log2 fold change [20]
1 | DDX42 (UniProt Q86XP3) | inactive: -0.005 | inactive: 0.033 | inactive: -0.002 | inactive: -0.009 | inactive: -0.005 | inactive: 0 | inactive: -0.019 | inactive: 0.011 | inactive: 0.006 | inactive: -0.003 | inactive: 0.04 | inactive: 0.004 | inactive: -0.027 | inactive: 0.018 | inactive: 0.029 | inactive: -0.003 | inactive: 0.036 | inactive: 0.022 | inactive: -0.002 | inactive: -0.008
2 | DDX21 (UniProt Q9NR30) | inactive: 0.005 | inactive: -0.028 | inactive: -0.051 | inactive: 0.047 | inactive: 0.01 | inactive: 0.032 | inactive: 0.027 | inactive: 0.006 | inactive: 0.012 | inactive: -0.018 | inactive: -0.023 | inactive: -0.006 | inactive: 0.003 | inactive: -0.001 | inactive: 0.009 | inactive: -0.024 | inactive: -0.003 | inactive: -0.011 | inactive: 0.046 | inactive: 0.025
3 | DDX50 (UniProt Q9BQ39) | inactive: -0.034 | inactive: -0.469 | inactive: -0.056 | inactive: 0.07 | inactive: 0.125 | inactive: -0.054 | inactive: 0.014 | inactive: 0.098 | inactive: -0.038 | inactive: 0.026 | inactive: 0.059 | inactive: 0.004 | inactive: 0.02 | inactive: -0.007 | inactive: 0.029 | inactive: -0.01 | inactive: -0.036 | inactive: -0.032 | inactive: 0.022 | inactive: 0.015
4 | DECR1 (UniProt Q16698) | inactive: -0.009 | inactive: 0.044 | inactive: -0.01 | inactive: -0.006 | inactive: -0.014 | inactive: 0.001 | inactive: -0.014 | inactive: -0.013 | inactive: -0.005 | inactive: -0.014 | inactive: 0.006 | inactive: 0.001 | inactive: 0.027 | inactive: 0.012 | inactive: 0.01 | inactive: 0.01 | inactive: -0.01 | inactive: -0.011 | inactive: -0.004 | inactive: 0.007
5 | DDHD1 (UniProt Q8NEL9) | inactive: -0.036 | inactive: 0.02 | inactive: -0.046 | inactive: -0.145 | inactive: 0.113 | inactive: -0.01 | inactive: 0.043 | inactive: -0.018 | inactive: 0.218 | inactive: 0.044 | inactive: -0.021 | inactive: -0.002 | inactive: 0.028 | inactive: -0.117 | inactive: 0.057 | inactive: 0.054 | inactive: -0.13 | inactive: 0.017 | inactive: -0.032 | inactive: -0.01
6 | DCTN1 (UniProt Q14203) | inactive: 0.007 | inactive: -0.001 | inactive: -0.001 | inactive: -0.001 | inactive: 0.019 | inactive: -0.001 | inactive: -0.023 | inactive: 0 | inactive: -0.003 | inactive: -0.005 | inactive: -0.005 | inactive: 0.01 | inactive: 0.013 | inactive: -0.02 | inactive: -0.006 | inactive: 0.001 | inactive: 0.011 | inactive: -0.013 | inactive: 0.009 | inactive: 0.011
7 | DDX5 (UniProt P17844) | inactive: -0.002 | inactive: 0.02 | inactive: 0.013 | inactive: 0.004 | inactive: -0.043 | inactive: 0.001 | inactive: 0.029 | inactive: -0.006 | inactive: -0.012 | inactive: -0.019 | inactive: 0.004 | inactive: -0.005 | inactive: -0.016 | inactive: 0.043 | inactive: 0.02 | inactive: 0.002 | inactive: 0.033 | inactive: -0.019 | inactive: -0.008 | inactive: 0.011
8 | DDX17 (UniProt Q92841) | inactive: -0.002 | inactive: 0.051 | inactive: 0.018 | inactive: -0.009 | inactive: -0.022 | inactive: -0.004 | inactive: -0.024 | inactive: -0.008 | inactive: -0.005 | inactive: -0.026 | inactive: 0.011 | inactive: 0 | inactive: -0.046 | inactive: 0.035 | inactive: 0.018 | inactive: -0.011 | inactive: 0.022 | inactive: 0.008 | inactive: -0.027 | inactive: 0.023
9 | DCTN3 (UniProt O75935) | inactive: -0.007 | inactive: 0.034 | inactive: -0.048 | inactive: -0.001 | inactive: 0.014 | inactive: -0.009 | inactive: -0.042 | inactive: -0.001 | inactive: 0.008 | inactive: -0.023 | inactive: 0.026 | inactive: 0.008 | inactive: -0.012 | inactive: 0.025 | inactive: -0.017 | inactive: -0.077 | inactive: 0.007 | inactive: -0.02 | inactive: -0.008 | inactive: 0.007
10 | DDX23 (UniProt Q9BUQ8) | inactive: 0.011 | inactive: -0.043 | inactive: 0.002 | inactive: 0.004 | inactive: 0.002 | inactive: -0.012 | inactive: -0.005 | inactive: 0.004 | inactive: 0.028 | inactive: -0.042 | inactive: 0.012 | inactive: -0.005 | inactive: 0.039 | inactive: 0.009 | inactive: 0.034 | inactive: -0.003 | inactive: 0.002 | inactive: -0.016 | inactive: 0.027 | inactive: 0.005
11 | DAZAP1 (UniProt Q96EP5) | inactive: -0.017 | inactive: 0.008 | inactive: 0.03 | inactive: 0.023 | inactive: 0.026 | inactive: 0.017 | inactive: -0.047 | inactive: 0.02 | inactive: -0.004 | inactive: 0.012 | inactive: -0.031 | inactive: -0.011 | inactive: -0.124 | inactive: 0.133 | inactive: -0.023 | inactive: -0.062 | inactive: -0.015 | active: -0.359 | inactive: -0.031 | inactive: -0.009
12 | CYSTM1 (UniProt Q9H1C7) | inactive: 0.055 | inactive: -0.032 | inactive: 0.024 | inactive: 0.119 | inactive: 0.1 | inactive: 0.023 | inactive: -0.049 | inactive: 0.129 | inactive: -0.012 | inactive: -0.099 | inactive: 0.128 | inactive: 0.018 | inactive: -0.052 | inactive: -0.039 | inactive: 0.014 | inactive: -0.013 | inactive: 0.076 | inactive: 0.096 | inactive: 0.042 | inactive: -0.045
13 | DDX10 (UniProt Q13206) | inactive: -0.012 | inactive: -0.161 | inactive: 0.001 | inactive: 0.005 | inactive: -0.357 | inactive: 0.092 | inactive: 0.051 | inactive: -0.043 | inactive: 0.019 | inactive: -0.094 | inactive: 0.024 | inactive: 0.1 | inactive: 0.131 | inactive: 0.059 | inactive: -0.054 | inactive: -0.06 | inactive: -0.096 | inactive: -0.15 | inactive: 0.023 | inactive: 0.171
14 | DAP3 (UniProt P51398) | inactive: -0.003 | inactive: -0.033 | inactive: 0.079 | inactive: 0.003 | inactive: -0.006 | inactive: -0.014 | inactive: -0.026 | inactive: 0.009 | inactive: 0.014 | inactive: 0.01 | inactive: 0.006 | inactive: -0.04 | inactive: 0.029 | inactive: -0.019 | inactive: 0.013 | inactive: -0.01 | inactive: -0.078 | inactive: 0.053 | inactive: 0.031 | inactive: -0.016
15 | DCTN2 isoform 3 (UniProt Q13561) | inactive: -0.01 | inactive: -0.002 | inactive: -0.015 | inactive: 0.004 | inactive: -0.006 | inactive: -0.006 | inactive: 0.026 | inactive: 0.011 | inactive: -0.001 | inactive: -0.012 | inactive: 0.083 | inactive: 0 | inactive: -0.018 | inactive: -0.007 | inactive: -0.006 | inactive: -0.036 | inactive: -0.018 | inactive: -0.002 | inactive: -0.022 | inactive: -0.007
16 | DDX39A (UniProt O00148) | inactive: 0.023 | inactive: -0.095 | inactive: -0.045 | inactive: -0.001 | inactive: -0.003 | inactive: 0.008 | inactive: -0.026 | inactive: -0.02 | inactive: 0.009 | inactive: 0.014 | inactive: -0.005 | inactive: 0.062 | inactive: -0.009 | inactive: 0.029 | inactive: 0.022 | inactive: 0 | inactive: 0.009 | inactive: -0.032 | inactive: -0.016 | inactive: -0.004

Single entries from above.
DDHD1 (UniProt Q8NEL9) | log2 fold change [7]: inactive: 0.043
DCTN1 (UniProt Q14203) | log2 fold change [7]: inactive: -0.023
